Paper PMC8178337
These are yes or no findings as the source states them, for the method shown. Binding seen in cells or lysates may run through a third protein. These calls come from enrichment with a bait or labelling near it, and not all partners need be listed.

Sequences of proteins named here, by UniProt entry; tags and fusion partners are left off.
UniProt P15884: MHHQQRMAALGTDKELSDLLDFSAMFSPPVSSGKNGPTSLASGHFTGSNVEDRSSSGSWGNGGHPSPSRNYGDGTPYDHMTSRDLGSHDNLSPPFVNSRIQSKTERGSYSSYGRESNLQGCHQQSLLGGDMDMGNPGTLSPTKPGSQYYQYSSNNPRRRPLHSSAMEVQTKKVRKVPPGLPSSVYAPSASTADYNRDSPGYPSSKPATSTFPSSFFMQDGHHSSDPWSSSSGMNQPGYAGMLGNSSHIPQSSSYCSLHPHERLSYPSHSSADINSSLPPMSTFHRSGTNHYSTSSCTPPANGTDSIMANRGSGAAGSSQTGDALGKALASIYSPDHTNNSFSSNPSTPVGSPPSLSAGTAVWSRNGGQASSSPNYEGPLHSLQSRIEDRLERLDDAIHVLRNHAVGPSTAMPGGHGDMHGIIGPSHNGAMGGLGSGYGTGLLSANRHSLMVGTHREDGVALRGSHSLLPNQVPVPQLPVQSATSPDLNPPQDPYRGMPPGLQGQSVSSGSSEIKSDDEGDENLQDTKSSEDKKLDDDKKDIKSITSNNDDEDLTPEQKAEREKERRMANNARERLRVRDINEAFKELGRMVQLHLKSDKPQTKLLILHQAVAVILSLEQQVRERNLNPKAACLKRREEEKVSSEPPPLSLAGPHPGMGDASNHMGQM

Molecular target: T1, Runt-related transcription factor 1 (Runx1t1) (human (endogenous in 253 J and J82)) (UniProt Q06455)
T1 sequence: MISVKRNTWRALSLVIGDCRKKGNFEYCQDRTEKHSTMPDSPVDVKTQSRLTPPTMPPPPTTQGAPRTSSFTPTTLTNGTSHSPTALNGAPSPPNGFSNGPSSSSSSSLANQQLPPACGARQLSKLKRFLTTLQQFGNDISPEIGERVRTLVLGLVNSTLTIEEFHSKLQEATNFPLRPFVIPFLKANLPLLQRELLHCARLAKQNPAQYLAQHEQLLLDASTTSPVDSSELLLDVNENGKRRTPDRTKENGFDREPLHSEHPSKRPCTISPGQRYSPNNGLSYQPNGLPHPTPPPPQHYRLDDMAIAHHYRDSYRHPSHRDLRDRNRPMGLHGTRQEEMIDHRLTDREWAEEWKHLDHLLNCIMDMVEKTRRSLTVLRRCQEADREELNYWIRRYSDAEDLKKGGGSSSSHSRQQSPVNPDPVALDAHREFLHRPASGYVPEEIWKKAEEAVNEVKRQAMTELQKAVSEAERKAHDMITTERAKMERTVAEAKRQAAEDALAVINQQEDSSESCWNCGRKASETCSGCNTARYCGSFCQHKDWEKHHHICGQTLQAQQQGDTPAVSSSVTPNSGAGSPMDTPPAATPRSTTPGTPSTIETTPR
Assay: affinity purification with mass spectrometry; CoIP-MS with an anti-Runx1t1 antibody in J82 cells, with and without RBM24 overexpression

binding: binds
Substance: Transcription factor 4 (TCF4) (from UniProt P15884 1-667)
